From patent US20250019769A1, “REPURPOSING DRUGS FOR NON-SMALL CELL LUNG CANCER” (WEST VIRGINIA UNIVERSITY BOARD OF GOVERNORS ON BEHALF OF …, priority 2021, published 2025)

Test system: human NSCLC epithelial cell lines
Test: PRISM/GDSC drug response in human NSCLC epithelial cell lines (n=135)
Type: cell-based
Conditions: NSCLC cells (FIG. 18C)
Excerpt: The PRISM dataset. was obtained from the DepMap portal (https://depmap.org/portal/download/, PRISM repurposing 19Q4, accessed on 1 Apr. 2021). Carboplatin, cisplatin, docetaxel, erlotinib, etoposide, gefitinib, gemcitabine, paclitaxel (Taxol), pemetrexed, and vinorelbine were commonly used chemotherapeutic drugs in NSCLC treatment, the analysis focused on these ten regiments. Drug activity measurements, including IC50, ln(IC50), EC50, and ln(EC50), were used in the analysis. The available CCLE NSCLC cell lines were divided into three groups by the drug activity measurements: sensitive, resistant, and intermediate.
Drug activity measurements were generated in the GDSC Project. (https://www.cancerrxgene.org/downloads/bulk_download, accessed on 15 Apr. 2021). IC50 and ln(IC50) were the main metrics used in this analysis. The available CCLE NSCLC cell lines were divided into three groups by the drug activity measurements in the GDSC1/2 datasets, i.e., sensitive, resistant, and intermediate.

Compound | outliers (IC50 or EC50 higher than 10 μM)
CC(C)c1ccccc1Cc1cc(C(=O)Nc2ccc(S(=O)(=O)c3ccccc3C(C)(C)C)cc2)c(O)c(O)c1O [TW-37] | without any outliers
CO[C@@H](C(=O)N1Cc2n[nH]c(NC(=O)c3ccc(N4CCN(C)CC4)cc3)c2C1)c1ccccc1 [danusertib] | without any outliers
